System: microexons
Assay: Neural-regulated microexons by RNA-Seq pipeline across mouse cell and tissue types

| Substance | Regulation in Brain (mouse neural-regulated microexons, coordinates mm9) | Regulation in Brain (mouse neural-regulated microexon (mm9), NEURAL-UP or NEURAL-DOWN) |
| --- | --- | --- |
| Dtnb | NEURAL-UP | – |
| Sbf1 | – | NEURAL-UP |

— patent US10772928B2, “Modulation and detection of a neuronal alternative splicing regulatory network for treatment and diagnosis of neurological disorders” (The Governing Council of the University of Toronto, priority 2014, dated 2020)
